From US8575146B2, “Pharmaceutical uses of staurosporine derivatives” (Novartis AG, priority 2003, dated 2013) come the findings set out here.

The assay has as its system BR and C2 canine mastocytoma cells. The experiment in a line: XTT-based proliferation assay of canine mast cell tumor cell lines. The following applies: BR or C2 cells. From the text: The C2 cell line has an internal tandem duplication (ITD) of the KIT juxtamembrane region.

For `CO[C@@H]1[C@H](N(C)C(=O)c2ccccc2)C[C@H]2O[C@]1(C)n1c3ccccc3c3c4c(c5c6ccccc6n2c5c31)C(=O)NC4` [PKC412, N-[(9S, 10R,11R,13R)-2,3,10,11,12,13-hexahydro-10-methoxy-9-methyl-1-oxo-9,13-epoxy-1H,9H-diindolo[1,2,3-gh:3′,2′,1′-lm]pyrrolo[3,4j][1,7]benzodiazonin-11-yl]-N-methylbenzamide], the “Morphologic observations of the inhibitor treated cells” value was “changes consistent with apoptosis”. Besides, the inhibition of proliferation entry (0.001-0.01 μM, 48-72 hours) is given as “Partial inhibition”.
